{"source": "PubChem BioAssay AID651717", "about": "(Broad Institute, 2012)", "note": "Among all 1,200 compounds or so, about 950 (79%) were called active. So high a share suggests a set chosen from earlier hits. Inconclusive results, whose numbers are uncertain, are shown with a selection of clear calls.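 Rule for the calls: active = signal rises and fitted curve reaches 40% activity at or below the top valid tested dose, in every replicate test; inconclusive = replicate tests give mixed calls; inactive = the rest, including activity in the opposite direction.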", "data": [{"experiment": "Bmi1-luciferase reporter activators in mESC, dose response, esBAF inhibitor project, mouse embryonic stem cells, cherry-pick (AID 651717);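 note: luciferase knocked into Bmi1 locus with EF-1a renilla as cell number control; rising ratio signals esBAF inhibition which derepresses Bmi1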", "details": "firefly/renilla ratio, 24 h, active compounds read high; at 4.2 µM unless noted", "values": [{"smiles": "COc1ccc(C2CC(c3ccncc3)=NN2c2ccc(S(N)(=O)=O)cc2)cc1", "note": "(stereo not drawn)", "max activity": "inconclusive: 44.4%"}, {"smiles": "O=C(O)C/C(=C\\c1cc(Br)cs1)c1nc2ccccc2o1", "max activity": "inactive: 31.8% [at 35 µM]"}, {"smiles": "CCC(c1nnc(SCc2nc3ccccc3s2)n1Cc1ccccc1)N(C)C", "note": "(stereo not drawn)", "max activity": "inconclusive: 45% [at 8 µM]"}, {"smiles": "CCOc1cc(C(=O)N/N=C/c2cn(-c3ccccc3)nc2-c2cc3ccccc3o2)cc(OCC)c1OCC", "max activity": "inconclusive: 86.8%"}, {"smiles": "Cc1cc(O)c(N=Nc2ccc(C(=O)O)cc2)cc1C", "max activity": "inconclusive: 76.2% [at 2.1 µM]"}, {"smiles": "C[C@H]1CN([C@@H](C)CO)C(=O)c2cccc(NC(=O)Nc3ccc4c(c3)OCO4)c2O[C@@H]1CN(C)S(=O)(=O)c1cccs1", "max activity": "inconclusive: 45.2%"}, {"smiles": "CO[C@H]1CN(C)C(=O)c2cc(NC(=O)Nc3ccccc3)ccc2OC[C@H](C)N(C(=O)CC2CC2)C[C@@H]1C", "max activity": "inconclusive: 43.8% [at 1 µM]"}, {"smiles": "N#Cc1ccsc1NC(=O)c1ccc2ncsc2c1", "max activity": "inconclusive: 69.5%"}]}]}
